Results taken from PubChem BioAssay AID2685 (National Center for Advancing Translational Sciences (NCATS), 2010).
The other results are listed elsewhere or left out. The main result of the screen is listed elsewhere. These columns were measured beside it and carry no call. Most of these compounds were active or inconclusive in the main read-out, so they are no random draw. The note in brackets gives the kind of curve behind each potency; many fits are weak.

Assay: qHTS Assay for Lipid Storage Modulators in Drosophila S3 Cells;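 as to cell number change: cells counted by Cell Tracker Red CMTPX staining in the red channel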
Details: BODIPY lipid droplet fluorescence, 18-24 h; for cell number change: measured here: cell count max response, cells fed with added oleic acid
In short: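 Laser-scanning cytometry quantifies lipid droplet accumulation (500–530 nm total intensity; droplet/cell object ratio) in oleic acid-fed (400 uM added) Drosophila S3 cells treated with a concentration series. 20 uM Triacsin C defined 100% inhibition.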

[1] = measured here: lipid fluorescence (Fed channel) AC50, cells fed with added oleic acid
[2] = measured here: cell number channel AC50, cells fed with added oleic acid

## COc1cccc(-c2nn(-c3ccc(C)cc3)cc2C(=O)N(C)CC(=O)Nc2cccc(F)c2)c1
[1]
  AC50: 7.31 µM [falling, partial curve]

## Cc1[nH]c2ccccc2c1C(C[N+](=O)[O-])c1ccco1 (centres undefined)
  cell number change: -30.4%
[2]
  AC50: 20.6 µM [falling, single point]
[1]
  AC50: 18.4 µM [falling, single point]

## O=C(CC1CC2CCC1C2)N1CCN(S(=O)(=O)c2ccccc2F)CC1 (centres undefined)
  cell number change: 45.5%
[2]
  AC50: 25.9 µM [rising, partial curve]
[1]
  AC50: 29.1 µM [rising, partial curve, poor fit]

## CC(=O)N1CCN(S(=O)(=O)c2cccc(C(=O)Nc3nc4c(s3)CCCC4)c2)CC1
[1]
  AC50: 0.58 µM [rising, single point]

## O=[N+]([O-])c1ccc(Oc2ccc(S(=O)(=O)N3CCOCC3)cn2)cc1
  cell number change: 11.6%
[1]
  AC50: 0.58 µM [falling, single point]

## COc1cc(/C=C2\SC(=S)N(N3CCOCC3)C2=O)cc(OC)c1OC
  cell number change: -10.9%
[1]
  AC50: 7.31 µM [falling, single point]

## CCOC(=O)CCC(=O)Nc1ccc(S(=O)(=O)Nc2cc(OC)nc(OC)n2)cc1
  cell number change: 22.6%
[1]
  AC50: 0.58 µM [rising, single point]

## Cn1c(N=NC(=O)c2ccccc2)c(O)c2ccccc21
  cell number change: 7.21%
[1]
  AC50: 3.26 µM [falling, single point]

## COc1cccc(-c2noc(-c3cccnc3)n2)c1
  cell number change: -2.79%

## CCCN1CCC(NC(=S)Nc2cccc(Cl)c2Cl)CC1
  cell number change: 19.3%

## CC(c1ccccc1)n1c(Cn2ncc3ccccc3c2=O)n[nH]c1=S (centres undefined)
  cell number change: 18%
[1]
  AC50: 29.1 µM [falling, single point]

## Cc1ccc(-c2nc3cccnc3s2)cc1NS(=O)(=O)c1ccc2c(c1)OCCO2
[1]
  AC50: 0.116 µM [rising, full curve, poor fit]

## Cc1cc(C)nc(-n2nc(C)cc2NC(=O)c2ccc(F)cc2F)n1
  cell number change: -24.6%

## Cc1ccc2nc(SCC(=O)Nc3ccc(C)c(Cl)c3)nc(=O)n2c1
[2]
  AC50: 1.84 µM [rising, partial curve]

## COc1ccc(CCNC(=O)C2CCN(S(=O)(=O)c3ccc(NC(C)=O)cc3)CC2)cc1OC
  cell number change: 47.2%
[2]
  AC50: 9.2 µM [rising, partial curve]
[1]
  AC50: 2.91 µM [rising, single point]

## COc1ccc(S(=O)(=O)N2CCN(Cc3cccnc3)CC2)cc1
  cell number change: 15.5%
[1]
  AC50: 29.1 µM [rising, single point]

## Cc1ccc(N(CC(=O)NCc2ccco2)C(=O)CCC(=O)Nc2nccs2)c(C)c1
  cell number change: -31.7%
[2]
  AC50: 9.2 µM [falling, partial curve]

## Cc1cc(Nc2ccc3c(c2)OCCO3)n2nc(C)nc2n1
  cell number change: 1.22%

## N#Cc1c(-c2ccccc2)c(-c2ccccc2)n[nH]c1=O
  cell number change: -48.2%
[2]
  AC50: 23.1 µM [falling, single point]
[1]
  AC50: 29.1 µM [falling, single point]

## CCCC(=O)Nc1ccc(Cl)c(NC(=O)c2cccc(OC)c2)c1
  cell number change: 6.33%
[2]
  AC50: 1.84 µM [rising, partial curve]

## CC(=O)N1CCN(C(=O)CCN(c2ccccc2)S(=O)(=O)c2ccc(C)cc2)CC1
  cell number change: 12.5%
[1]
  AC50: 0.13 µM [rising, full curve, poor fit]

## COc1ccc(CN=C(C)c2c(C(F)(F)F)[nH]n(-c3nc4ccccc4s3)c2=O)cc1
  cell number change: 17.3%
[2]
  AC50: 0.517 µM [rising, full curve]
[1]
  AC50: 0.92 µM [rising, partial curve]

## Cc1cccc(NC(=O)c2cc(-c3ccc(C)s3)nc3ccccc23)n1
  cell number change: 43.9%
[2]
  AC50: 11.6 µM [rising, partial curve]
[1]
  AC50: 13 µM [rising, partial curve]

## Cc1ccnc(NC(=O)C2CC(=O)N(c3ccc4c(c3)OCCO4)C2)c1 (centres undefined)
  cell number change: 21.1%
[1]
  AC50: 29.1 µM [rising, partial curve, poor fit]

## Cc1c(C)n(CC(O)CNCCO)c2ccccc12 (centres undefined)
[1]
  AC50: 0.116 µM [rising, full curve, poor fit]

## CCOC(=O)c1cnn(-c2nc(SC)nc3sc4c(c23)CCCC4)c1N
  cell number change: 41.7%
[2]
  AC50: 1.84 µM [rising, full curve]
[1]
  AC50: 5.17 µM [rising, partial curve]

## CC1CCN(S(=O)(=O)c2ccc3c(c2)C(=NO)c2cc(S(=O)(=O)N4CCC(C)CC4)ccc2-3)CC1
  cell number change: -55.1%
[2]
  AC50: 4.11 µM [falling, partial curve]
[1]
  AC50: 2.31 µM [falling, full curve]

## CC(=O)NC1(NC(C)=O)CCN(C)C(c2ccccc2)C1C (centres undefined)
  cell number change: -76.1%
[2]
  AC50: 0.411 µM [falling, full curve]
[1]
  AC50: 29.1 µM [falling, single point]

## COc1ccccc1OC(=O)c1ccc(SC)cc1OC
  cell number change: 28.3%
[1]
  AC50: 29.1 µM [rising, single point]

## Cc1cccc(OCCOC(=O)C2CCN(S(=O)(=O)c3ccc(C)c(C)c3)CC2)c1
  cell number change: 25.5%
[1]
  AC50: 11.2 µM [rising, partial curve]

## NS(=O)(=O)c1ccc(N/N=C2/CCCc3ccccc32)c([N+](=O)[O-])c1
  cell number change: -14.7%
[1]
  AC50: 0.112 µM [falling, full curve, poor fit]

## COc1ccc(C(=O)COC(=O)CN2C(=O)C3C4CCC(C4)C3C2=O)cc1 (centres undefined)
[1]
  AC50: 4.11 µM [falling, partial curve, poor fit]

## C/C=C(\C)CN1CCC(n2nccc2NC(=O)CCc2ccccc2)CC1
  cell number change: 6.8%

## Cc1[nH]c2ccccc2c1/C=N/Nc1ccc(F)cc1F
  cell number change: -14.9%
[1]
  AC50: 16.4 µM [falling, single point]

## O=C(NCc1ccco1)c1cc(NS(=O)(=O)c2cccc([N+](=O)[O-])c2)ccc1O
  cell number change: 46.7%

## CC(Sc1nnc(-c2ccc(Cl)cc2)n1C)C(N)=O (centres undefined)
  cell number change: 6.51%

## NC(=O)C1CCN(S(=O)(=O)c2ccccc2[N+](=O)[O-])CC1
  cell number change: 6.82%
[1]
  AC50: 29.1 µM [rising, single point]

## Nn1c(SCC(=O)Nc2cccnc2Cl)nnc1-c1ccccc1
  cell number change: 15.6%

## CCN(CC)CC#CCC(OC)(c1ccccc1)c1ccccc1
  cell number change: -65.5%
[2]
  AC50: 18.4 µM [falling, single point]
[1]
  AC50: 16.4 µM [falling, single point]

## O=C(Nc1ccc(N2CCN(C(=O)c3cccs3)CC2)c(Cl)c1)c1cccnc1
  cell number change: 21.6%
[2]
  AC50: 2.91 µM [rising, single point]

## COc1cccc(NC(=O)c2oc3ccccc3c2NC(=O)c2ccc3c(c2)OCO3)c1
  cell number change: -3.7%
[1]
  AC50: 7.31 µM [falling, partial curve, poor fit]

## CCOCCCNC(=O)C1c2ccccc2Oc2ccccc21
  cell number change: 8.13%

## O=C(OCc1csc(-c2ccccc2)n1)c1cccs1
  cell number change: 0.917%
[1]
  AC50: 0.0326 µM [falling, full curve]

## N#CCCOC1(C#CCN2CCCC2)CCCCC1
[2]
  AC50: 0.82 µM [rising, full curve, poor fit]

## Cc1[nH]n(-c2ccccc2)c(=S)c1C=Nc1cccc([N+](=O)[O-])c1
  cell number change: -21.6%

## CCn1cc(/C=C(\NC(=O)c2ccccc2F)C(=O)NCCCn2ccnc2)c2ccccc21
[2]
  AC50: 1.84 µM [falling, single point]

## Cc1cccc(NC(=O)c2c(-c3ccccc3)noc2C)n1
  cell number change: 47.4%

## CC(C)OC(=O)c1cn(-c2ccccc2)nc1-c1ccco1
[2]
  AC50: 2.31 µM [rising, partial curve]

## CCCCN(C(=O)NC(=O)Nc1c(C)cc(C)cc1C)S(C)(=O)=O
  cell number change: 22.9%
[1]
  AC50: 5.8 µM [rising, single point]

## Cc1ccc(-c2cc(C(=O)Nc3cc(C)on3)c3ccccc3n2)cc1
  cell number change: -48.6%
[2]
  AC50: 16.4 µM [falling, partial curve]

## C[C@H](NC(=O)c1nc[nH]c1C(=O)N[C@@H](Cc1ccccc1)C(=O)OC(C)(C)C)C(=O)OCc1ccccc1
[1]
  AC50: 18.4 µM [falling, single point]

## COc1ccc(/C=C(\C#N)C(=O)Nc2cc(S(=O)(=O)N3CCCCC3)ccc2N2CCCCC2)cc1
  cell number change: 31.6%
[2]
  AC50: 23.1 µM [rising, single point]
[1]
  AC50: 6.51 µM [rising, single point]

## Cc1ccc(OCCC(=O)OCC(=O)Nc2ccccc2)cc1
  cell number change: -17.6%
[1]
  AC50: 29.1 µM [falling, single point]

## O=C(c1ccc(NC(=O)C(c2ccccc2)c2ccccc2)cc1)c1ccc(C(=O)O)c(C(=O)O)c1
  cell number change: -22.1%

## CCOC(=O)c1ccc(N2C(=O)C3CCOc4ccccc4C32)cc1 (centres undefined)
  cell number change: -13.8%

## Cc1[nH]n(-c2ncc(-c3ccccc3)s2)c(=O)c1C(c1ccc(Cl)cc1)C(C#N)C#N (centres undefined)
  cell number change: -43.8%
[2]
  AC50: 16.4 µM [falling, single point]

## O=C(/C=C/c1ccc(F)cc1)NCC1(c2ccccc2)CCOCC1
  cell number change: 14.9%
[1]
  AC50: 1.64 µM [rising, partial curve]

## N=C(N)SCc1nc2ccccc2c(=O)n1-c1ccccc1Cl
  cell number change: -19.2%

## Cc1ccccc1/C=N\NC(=O)c1ccc(Cn2cccn2)o1
  cell number change: 15.7%
[1]
  AC50: 0.146 µM [rising, partial curve]

## O=c1cc(O)sc2ccccc12
[2]
  AC50: 1.84 µM [rising, partial curve]
[1]
  AC50: 2.06 µM [rising, partial curve]

## Cc1cc(Oc2ccccc2)nc(N2CCOCC2)n1
[2]
  AC50: 0.13 µM [falling, full curve, poor fit]
[1]
  AC50: 0.651 µM [falling, partial curve, poor fit]
